# In patent publication US4789542A, “Radioiodinated glucose analogues for use as imaging agents” (The United States of America as represented by the United …, priority 1986, dated 1988):
# At least one read-out could not be matched to a standard name with certainty.
# Assay: Distribution of radioactivity in tissues of female rats after intravenous administration
# Format: in vivo
# Conditions: rat, 60 min (1 hr), mean
# Method: A test radiopharmaceutical methyl-2-deoxy-2-(E)-[^125 I]-iodovinyl-2,4,6-0-triacetyl-β-D-altropyranoside 6 was prepared to establish that a deoxy substituted iodovinyl carbohydrate could be delivered to the brain in significant levels with prolonged retention. One novel aspect of the invention was the scission of an anhydro sugar with the Grignard reagent. This technique was chosen because a variety of 2-deoxy iodovinyl carbohydrates could be prepared depending on the position of the anhydro group within the pyranose ring. The process of the synthesis is shown in the drawing.
# The distribution of radioactivity in tissues of female rats at 5 minutes, 15 minutes, 30 minutes and 60 minutes after intravenous administration of the iodinated compound is shown in the following table. The level of accumulation of radioactivity in the brain after injection of this agent was a significant 1.65 percent dose/g at 5 minutes but the blood levels were also high resulting in blood ratios of 1.6/1 at 5 minutes.
compound,measurement,value
"CO[C@@H]1O[C@H](COC(C)=O)[C@@H](OC(C)=O)[C@@H](OC(C)=O)[C@@H]1/C=C/[125I] [methyl-2-deoxy-2-(E)-[^125 I]-iodovinyl-2,4,6-0-triacetyl-β-D-altropyranoside]","Distribution of radioactivity, Thyroid",33.4920%
